From article PMC7392026
These are yes or no findings as the source states them, for the method shown. In cells and extracts the contact can be indirect. Some entries that bind do so weakly or less than the wild type.

Protein sequences, listed by entry. Tags and fused reporters are not part of them. Residues count along the entry.
UniProt Q01995: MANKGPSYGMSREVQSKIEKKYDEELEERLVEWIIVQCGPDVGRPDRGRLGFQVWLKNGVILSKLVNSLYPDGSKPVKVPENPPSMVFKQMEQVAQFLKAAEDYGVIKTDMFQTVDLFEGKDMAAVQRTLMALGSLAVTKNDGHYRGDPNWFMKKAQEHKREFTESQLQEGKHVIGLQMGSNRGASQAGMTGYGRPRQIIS
UniProt P49747, residues 21-757: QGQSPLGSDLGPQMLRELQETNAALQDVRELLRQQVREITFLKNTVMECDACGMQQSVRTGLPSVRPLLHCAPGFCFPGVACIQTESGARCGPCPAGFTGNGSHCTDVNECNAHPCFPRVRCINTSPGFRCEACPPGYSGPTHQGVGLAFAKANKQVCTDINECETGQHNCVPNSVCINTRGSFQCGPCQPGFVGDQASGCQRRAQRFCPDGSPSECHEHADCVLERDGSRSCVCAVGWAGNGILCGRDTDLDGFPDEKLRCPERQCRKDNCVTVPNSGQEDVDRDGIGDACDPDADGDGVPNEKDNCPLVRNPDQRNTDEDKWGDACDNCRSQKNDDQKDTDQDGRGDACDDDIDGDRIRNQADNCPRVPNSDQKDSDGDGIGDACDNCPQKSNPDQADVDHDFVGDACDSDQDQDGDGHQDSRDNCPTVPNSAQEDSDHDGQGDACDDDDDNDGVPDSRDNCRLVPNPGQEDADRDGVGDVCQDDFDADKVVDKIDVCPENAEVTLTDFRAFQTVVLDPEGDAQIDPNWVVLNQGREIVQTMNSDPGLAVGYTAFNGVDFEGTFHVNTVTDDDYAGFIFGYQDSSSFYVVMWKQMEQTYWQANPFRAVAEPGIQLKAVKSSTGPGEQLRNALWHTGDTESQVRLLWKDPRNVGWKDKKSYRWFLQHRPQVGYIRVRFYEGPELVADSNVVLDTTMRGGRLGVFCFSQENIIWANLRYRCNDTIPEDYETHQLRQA

Legend:
[1] = biological target: Transgelin (human (endogenous in HCT116)) (UniProt Q01995); test: proximity ligation; Duolink PLA in colorectal cancer cells with primary antibodies (1:100) and two PLA probes; DAPI staining, confocal microscopy
[2] = biological target: Transgelin (human (endogenous in HCT116)) (UniProt Q01995); test: co-IP; HCT116 cell lysate in 0.3% Nonidet P-40 lysis buffer with protease inhibitors; control or specific antibodies on protein A/G agarose, 4 °C, 12 h; washed five times with 0.1% Nonidet P-40 buffer; Western blot for COMP and TAGLN
[3] = biological target: Cartilage oligomeric matrix protein (human (endogenous in HCT116)) (UniProt P49747); test: as above

| Substance | binding [1] | binding [2] | binding [3] |
| --- | --- | --- | --- |
| Cartilage oligomeric matrix protein (from UniProt P49747 21-757) | binds | binds |  |
| Transgelin (from UniProt Q01995 1-201) |  |  | binds |
